Experimental data from PMC6368539.

By UniProt entry, the sequences of proteins in these tests, tags left out. Where a name states a change or a piece, a line headed by the entry shows the natural chain unless it says otherwise. Residues count along the entry.
UniProt P08034: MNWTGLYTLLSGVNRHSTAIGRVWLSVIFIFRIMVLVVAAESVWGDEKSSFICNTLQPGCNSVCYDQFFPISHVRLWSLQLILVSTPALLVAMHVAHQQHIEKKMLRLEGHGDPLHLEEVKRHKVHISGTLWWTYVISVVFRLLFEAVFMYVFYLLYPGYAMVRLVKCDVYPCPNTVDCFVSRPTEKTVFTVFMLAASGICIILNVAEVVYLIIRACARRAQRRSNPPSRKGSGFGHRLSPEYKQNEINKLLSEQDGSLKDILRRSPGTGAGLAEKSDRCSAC
UniProt Q5UCC4, residues 26-262: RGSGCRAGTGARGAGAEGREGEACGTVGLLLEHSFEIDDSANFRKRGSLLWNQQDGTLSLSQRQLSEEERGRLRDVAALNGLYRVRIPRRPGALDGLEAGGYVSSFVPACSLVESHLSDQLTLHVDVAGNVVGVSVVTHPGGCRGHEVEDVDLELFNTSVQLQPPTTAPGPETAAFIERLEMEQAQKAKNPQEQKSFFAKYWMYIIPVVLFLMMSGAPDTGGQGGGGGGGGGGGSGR
UniProt Q9UBS4, residues 23-358: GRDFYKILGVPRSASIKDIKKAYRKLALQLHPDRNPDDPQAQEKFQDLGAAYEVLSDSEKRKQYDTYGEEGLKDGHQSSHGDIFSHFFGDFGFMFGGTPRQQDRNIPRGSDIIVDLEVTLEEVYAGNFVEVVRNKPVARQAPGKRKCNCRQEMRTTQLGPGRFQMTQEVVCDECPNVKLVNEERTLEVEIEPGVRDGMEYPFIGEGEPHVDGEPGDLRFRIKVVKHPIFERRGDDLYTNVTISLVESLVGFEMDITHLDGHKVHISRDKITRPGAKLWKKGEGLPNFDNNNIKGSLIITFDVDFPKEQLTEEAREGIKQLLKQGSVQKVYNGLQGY
UniProt P27824, residues 21-592: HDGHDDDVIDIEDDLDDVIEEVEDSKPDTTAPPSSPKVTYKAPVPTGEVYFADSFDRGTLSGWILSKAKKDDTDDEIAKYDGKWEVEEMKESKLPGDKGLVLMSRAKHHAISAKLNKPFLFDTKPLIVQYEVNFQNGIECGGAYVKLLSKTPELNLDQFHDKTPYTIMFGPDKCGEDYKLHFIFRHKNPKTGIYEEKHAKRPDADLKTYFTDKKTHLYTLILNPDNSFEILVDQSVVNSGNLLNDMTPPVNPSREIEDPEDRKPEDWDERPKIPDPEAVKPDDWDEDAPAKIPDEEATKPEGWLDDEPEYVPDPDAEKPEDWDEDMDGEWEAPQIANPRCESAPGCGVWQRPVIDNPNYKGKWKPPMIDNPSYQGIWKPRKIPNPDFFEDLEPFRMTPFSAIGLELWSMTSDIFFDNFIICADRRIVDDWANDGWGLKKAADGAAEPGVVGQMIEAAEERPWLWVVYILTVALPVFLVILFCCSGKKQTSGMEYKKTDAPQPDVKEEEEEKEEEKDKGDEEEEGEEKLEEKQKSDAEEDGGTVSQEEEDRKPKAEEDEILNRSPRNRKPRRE

Experiments:
[1] = molecular target: connexin 32 L90H, FLAG-tagged (human) (UniProt P08034); assay: affinity purification with mass spectrometry; FLAG-tagged Cx32 immunoprecipitated from transfected HEK293T cells in 1% digitonin buffer with a rabbit monoclonal anti-FLAG antibody; rabbit IgG isotype control; three replicates; label-free quantification
[2] = molecular target: connexin 32 wild type, FLAG-tagged (human) (UniProt P08034); assay: as above

ER-membrane protein complex (EMC) subunit 10 (from UniProt Q5UCC4 26-262)
binding [1]: binds | binding [2]: binds

ERdj3 (DNAJB11) (from UniProt Q9UBS4 23-358)
binding [2]: binds

Calnexin (from UniProt P27824 21-592)
binding [1]: binds | binding [2]: binds

No constants are given. Whether binding was seen depends on the method and setting. In cells and extracts the contact can be indirect. Here binding means that the protein was enriched with, or labelled near, the bait; the list need not be complete.
